# Measurements reported in US8524891B2, “Tetraazaporphyrin-based compounds and their uses” (Board of Supervisors of Louisiana State University and …, priority 2005, dated 2013).
# Assay: Stern-Volmer quenching analysis in RET assay
# Details: quenching of Zn-Pc fluorescence
row,SMILES,Stern-Volmer quenching constant
1,CCN(CC)c1ccc2nc3ccc(/N=N/c4ccc(N(C)CCCC(=O)O)cc4)cc3[n+](-c3ccccc3)c2c1 [BHQ-3],0.0004 M⁻¹
2,[Ni+2].c1ccc2c(c1)-c1nc-2nc2[n-]c(nc3nc(nc4[n-]c(n1)c1ccccc41)-c1ccccc1-3)c1ccccc21 [Ni-Pc],0.013 M⁻¹
